The comparison behind a weaker result is the experiment's own reference, which may not be listed here.

The chains behind the UniProt entries cited, without tags or fusion partners. Residues count along the entry.
UniProt O15527, 1-326: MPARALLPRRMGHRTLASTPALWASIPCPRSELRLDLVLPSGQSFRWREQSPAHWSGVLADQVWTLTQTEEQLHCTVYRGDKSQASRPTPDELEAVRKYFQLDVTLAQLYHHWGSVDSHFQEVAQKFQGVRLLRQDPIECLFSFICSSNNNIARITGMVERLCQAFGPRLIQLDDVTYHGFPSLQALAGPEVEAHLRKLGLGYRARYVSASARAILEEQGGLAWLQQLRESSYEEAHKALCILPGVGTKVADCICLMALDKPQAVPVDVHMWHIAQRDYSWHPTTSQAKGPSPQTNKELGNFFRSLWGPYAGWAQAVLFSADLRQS

Data on one sequence can be found in publication PMC11438860.

The target in this series is OGG1-dCT del327-345 (human) (UniProt O15527). Nature of the series: EMSA. The conditions noted are these: 2.5 uM DNA, only a portion shifted even at 20 uM protein, 8-oxo-dG at position 18 of strand 1 (text numbers it 17), within unmethylated Cp-8-oxoG, EMSA: 40 mM HEPES pH 7.4, 50 mM NaCl, 5 mM bME, 5% glycerol, 30 min on ice, 4-20% native gel, cryo-EM OGG1-DNA assembly: 20 mM HEPES pH 7.4, 100 mM NaCl, recombinant protein, residues 1-326.

As for “ATGCCTCGCAGAATCCCGCTGCCGAGGCCGCTCAA (double strand) [35-bp 8-oxoG DNA]”, the binding result is recorded as “binds more weakly”.
